In paper PMC9256709:
No constants are given. Whether binding was seen depends on the method and setting. Binding seen in cells or lysates may run through a third protein. Binding can be weak; no strength is given.

Amino acid sequences for entries named in this document (tags omitted).
UniProt P29386: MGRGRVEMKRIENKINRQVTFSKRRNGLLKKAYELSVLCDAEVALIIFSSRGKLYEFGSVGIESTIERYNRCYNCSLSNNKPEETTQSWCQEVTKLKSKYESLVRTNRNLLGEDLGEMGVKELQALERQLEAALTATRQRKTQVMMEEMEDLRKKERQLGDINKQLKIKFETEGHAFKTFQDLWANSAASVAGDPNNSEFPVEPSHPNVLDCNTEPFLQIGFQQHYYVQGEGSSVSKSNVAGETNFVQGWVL
UniProt P29382: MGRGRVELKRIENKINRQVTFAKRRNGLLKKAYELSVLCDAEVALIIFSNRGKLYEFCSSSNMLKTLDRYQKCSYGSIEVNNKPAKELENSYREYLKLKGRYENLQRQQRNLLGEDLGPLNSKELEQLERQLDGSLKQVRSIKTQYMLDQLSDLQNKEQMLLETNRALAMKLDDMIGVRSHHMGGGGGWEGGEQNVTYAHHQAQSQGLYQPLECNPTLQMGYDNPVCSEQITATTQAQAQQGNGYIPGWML

How the values were obtained:
[1] = target: AGL6 fused to YFP or CFP (Arabidopsis thaliana) (UniProt P29386); test: FRET or BRET; pairs of one CFP (CyPet) and one YFP (YPet) fusion co-expressed in tobacco (N. benthamiana) leaf cells; signals in the nucleus by confocal microscopy, 440 nm excitation; FRET efficiency = FRET/CFP, mean of n > 4; steady-state scatter of pFRET against FRET efficiency
[2] = target: SEP1 fused to YFP (Arabidopsis thaliana) (UniProt P29382); test: as above
[3] = target: SEP1 fused to YFP (Arabidopsis thaliana) (UniProt P29382); test: FRET or BRET; competition: FRET efficiency of FYF-CFP/SEP1-YFP in tobacco cells with 0, 25, 75 and 100% of unlabeled FYL2 added; mean of n > 4

binding [1]	binding [2]	binding [3]	Substance
binds	binds		FYF-like 2 (FYL2/AGL72) fused to CFP (from UniProt Q9FLH5-2)
		binds	FYL2, unlabeled (from UniProt Q9FLH5-2)
